# Screening data, single-dose tests

By UniProt entry, the sequences of proteins in these tests, tags left out. Residues count along the entry.
UniProt I6X8D2, whole entry: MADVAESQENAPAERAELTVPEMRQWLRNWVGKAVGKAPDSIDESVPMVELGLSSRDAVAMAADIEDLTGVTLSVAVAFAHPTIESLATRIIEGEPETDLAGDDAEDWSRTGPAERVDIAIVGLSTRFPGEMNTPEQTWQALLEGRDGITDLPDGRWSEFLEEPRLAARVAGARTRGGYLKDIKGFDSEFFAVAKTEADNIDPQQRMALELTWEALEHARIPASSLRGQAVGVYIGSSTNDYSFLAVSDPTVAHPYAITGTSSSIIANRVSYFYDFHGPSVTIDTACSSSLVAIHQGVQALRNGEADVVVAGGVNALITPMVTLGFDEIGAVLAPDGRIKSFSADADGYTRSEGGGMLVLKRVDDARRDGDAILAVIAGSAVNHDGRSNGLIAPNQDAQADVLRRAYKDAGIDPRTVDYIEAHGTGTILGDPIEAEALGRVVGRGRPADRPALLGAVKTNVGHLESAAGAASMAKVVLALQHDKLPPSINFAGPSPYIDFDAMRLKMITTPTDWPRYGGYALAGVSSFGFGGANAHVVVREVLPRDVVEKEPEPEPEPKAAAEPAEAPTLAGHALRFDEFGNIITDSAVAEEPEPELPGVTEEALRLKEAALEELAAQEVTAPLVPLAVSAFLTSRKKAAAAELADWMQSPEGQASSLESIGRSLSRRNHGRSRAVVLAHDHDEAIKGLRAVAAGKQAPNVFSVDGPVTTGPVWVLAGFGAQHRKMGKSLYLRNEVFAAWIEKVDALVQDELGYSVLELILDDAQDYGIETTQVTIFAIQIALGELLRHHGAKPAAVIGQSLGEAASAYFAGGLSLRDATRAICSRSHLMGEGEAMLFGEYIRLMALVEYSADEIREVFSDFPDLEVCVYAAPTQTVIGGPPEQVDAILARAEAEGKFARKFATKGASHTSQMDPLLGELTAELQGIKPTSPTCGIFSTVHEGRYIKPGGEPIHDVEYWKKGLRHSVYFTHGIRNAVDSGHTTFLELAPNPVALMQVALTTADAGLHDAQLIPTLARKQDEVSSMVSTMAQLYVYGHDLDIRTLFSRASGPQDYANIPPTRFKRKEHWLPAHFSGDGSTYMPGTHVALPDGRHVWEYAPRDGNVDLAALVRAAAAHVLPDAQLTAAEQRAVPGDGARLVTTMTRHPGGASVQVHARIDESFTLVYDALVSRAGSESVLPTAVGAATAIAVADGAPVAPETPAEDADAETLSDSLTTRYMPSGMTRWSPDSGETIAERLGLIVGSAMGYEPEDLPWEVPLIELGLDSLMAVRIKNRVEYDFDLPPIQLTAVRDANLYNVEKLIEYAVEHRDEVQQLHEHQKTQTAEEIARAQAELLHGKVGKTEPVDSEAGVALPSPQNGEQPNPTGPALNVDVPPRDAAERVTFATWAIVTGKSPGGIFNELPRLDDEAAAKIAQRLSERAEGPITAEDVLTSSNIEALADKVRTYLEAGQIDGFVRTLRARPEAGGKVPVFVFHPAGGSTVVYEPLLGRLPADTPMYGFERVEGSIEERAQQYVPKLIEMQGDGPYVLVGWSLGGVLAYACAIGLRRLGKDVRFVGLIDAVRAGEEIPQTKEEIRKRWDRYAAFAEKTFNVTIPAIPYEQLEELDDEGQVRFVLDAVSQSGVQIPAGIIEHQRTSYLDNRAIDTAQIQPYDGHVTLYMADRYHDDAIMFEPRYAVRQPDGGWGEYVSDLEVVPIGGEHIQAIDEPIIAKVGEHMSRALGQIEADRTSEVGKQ
UniProt Q8IDJ8, 1-583: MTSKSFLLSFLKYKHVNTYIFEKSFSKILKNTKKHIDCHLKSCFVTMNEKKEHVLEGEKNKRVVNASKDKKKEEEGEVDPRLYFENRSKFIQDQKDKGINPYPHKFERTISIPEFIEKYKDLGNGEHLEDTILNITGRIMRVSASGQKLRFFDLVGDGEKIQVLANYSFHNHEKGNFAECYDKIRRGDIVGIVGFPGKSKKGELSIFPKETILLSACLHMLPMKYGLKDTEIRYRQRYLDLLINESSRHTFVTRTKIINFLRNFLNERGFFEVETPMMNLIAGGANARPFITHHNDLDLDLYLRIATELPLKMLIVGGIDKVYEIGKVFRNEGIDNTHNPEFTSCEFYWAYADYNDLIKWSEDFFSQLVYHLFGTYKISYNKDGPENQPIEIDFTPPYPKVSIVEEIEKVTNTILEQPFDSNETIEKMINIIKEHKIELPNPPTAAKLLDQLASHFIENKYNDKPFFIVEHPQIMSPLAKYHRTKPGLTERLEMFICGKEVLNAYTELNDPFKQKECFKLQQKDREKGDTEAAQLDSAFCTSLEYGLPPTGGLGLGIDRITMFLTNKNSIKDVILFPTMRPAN
UniProt P9WNZ1, whole entry: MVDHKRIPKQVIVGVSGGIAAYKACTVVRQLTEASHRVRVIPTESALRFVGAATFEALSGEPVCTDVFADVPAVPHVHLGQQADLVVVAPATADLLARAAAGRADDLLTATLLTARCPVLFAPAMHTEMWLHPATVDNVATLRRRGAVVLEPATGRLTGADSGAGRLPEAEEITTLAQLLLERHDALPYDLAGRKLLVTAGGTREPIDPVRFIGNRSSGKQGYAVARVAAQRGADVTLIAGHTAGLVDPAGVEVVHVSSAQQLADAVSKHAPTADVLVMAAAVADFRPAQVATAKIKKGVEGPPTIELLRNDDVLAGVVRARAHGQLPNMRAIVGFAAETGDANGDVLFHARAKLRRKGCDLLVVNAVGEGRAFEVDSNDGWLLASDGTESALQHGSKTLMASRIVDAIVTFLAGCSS

Data taken from ChEMBL document CHEMBL3988442, “University of Dundee, Small-Polar-MMV Screening Library” (2021).

Pks13 thioesterase: 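Polyketide synthase Pks13, Mycobacterium tuberculosis (UniProt I6X8D2). Enzyme assay of the thioesterase domain of polyketide synthase 13; the read-out is not stated. Concentration: 30 µM. The record gives no direction; the compounds picked for IC50 retests had high values, so higher reads as stronger inhibition. Of about 67,000 compounds tested this way, about 300 (0.46%) reached 50% or more in at least one test.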
PfKRS1: 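Enzyme assay of the cytosolic lysyl-tRNA synthetase in 384-well plates, read by luminescence. Target: Lysine-tRNA ligase, Plasmodium falciparum 3D7 (UniProt Q8IDJ8). Concentration: 30 µM. Direction is inferred from only a few compounds that gave an IC50; most scored high, so higher reads as stronger inhibition. Size under these conditions: about 69,000 compounds, about 49 of them at 50% or above in at least one test.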
CoaBC: 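Coenzyme A biosynthesis protein CoaBC, Mycobacterium tuberculosis (UniProt P9WNZ1). Enzyme assay of CoaBC with a phosphate dye (Biomol Green) read at 650 nm. Compounds at 30 µM. Higher reads as stronger inhibition, judged from the few compounds that gave an IC50. Most strong results did not repeat in a second test. Of about 67,000 compounds tested this way, about 40 (0.06%) reached 50% or more in at least one test.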

Values are the deposited “Percent Effect”, in %.
The controls that fix the scale are not given in the record; negative values are as filed.
Compounds were drawn at random from those tested, without regard to their results.
A dash means the value is not listed here; it may have been measured.

SMILES | Pks13 thioesterase | PfKRS1 | CoaBC
CN(C)c1nc2n(c(=O)n1)CCN2C(=O)Nc1ccc(Cl)cc1 | -16.65% | 3.47% | 5.374%
CCC(C)(CO)NC(=O)Nc1cc2c(cc1SC)OCCO2 (stereo not given) | -21.28% | 1.558% | 3.427%
Cc1nccn1CCC1CCN(c2ccncn2)CC1 | -2.897% | 5.531% | -1.863%
CCCNC(=O)c1ccc2c(c1)C(=O)N(CC(C)C)C2=O | -23.71% | -5.874% | -4.478%
CN(Cc1noc(C2CC2)n1)C1CCN(CCc2cccs2)C1 (stereo not given) | -8.676% | 0.5761% | 1.072%
CSc1cc2c(cc1NC(=O)NCCn1ccnc1)OCCO2 | -14.74% | 2.131% | -5.04%
O=C(CN1CCCC1c1nc(-c2ccccc2)no1)N1CCOCC1 (stereo not given) | -18.06% | -1.25% | 4.121%
COCCNC(=O)N1CCN(C(=O)c2nsc3ccc(C)cc23)CC1 | 0.7375% | 2.567% | 1.772%
O=C(Oc1ccccc1)N1CCC(CNS(=O)(=O)c2cccnc2)CC1 | 41.52% | 0.3116% | -0.1255%
Cc1ccc2cc(CNCCCN3CCOCC3)c(=O)[nH]c2c1 | -33.07% | -0.06889% | -13.89%
CCOc1ccccc1N(C)Cc1nccn1C | -9.885% | 1.283% | 3.365%
Cc1csc([C@@H]2C[C@@H]3CCN(Cc4cc(C)on4)C[C@H]3O2)n1 | 10.02% | 5.1% | 1.733%
CCn1cc(CN2CCC(CN3CCCCC3)CC2)cc1C#N | -6.182% | 4.038% | 2.404%
Cc1nnsc1C(=O)N1CC(c2nc3ccccc3[nH]2)C1 | -11.69% | 2.06% | -1.022%
COC(=O)COc1cccc(NS(=O)(=O)c2cc(C(=O)O)cs2)c1 | -26.55% | -1.758% | -0.2591%
NCc1cnn(-c2ccccc2C(=O)NCc2ccccn2)c1 | -1.825% | 2.411% | 3.594%
CN(CC(=O)Nc1cccc(F)c1)Cc1nc(N)nc(N(C)C)n1 | -24.18% | 1.774% | 2.978%
Cc1nn(C)c2c(NCCCn3cccn3)nc(C(C)C)nc12 | -17.3% | -2.123% | -21.94%
CN1C(=O)Cc2cc(-c3csc(CCN4CCOC4=O)n3)ccc21 | -16.01% | 0.8576% | 1.364%
Fc1ccc(CNC2CCN(CCc3ccncc3)CC2)cc1F | -21.71% | 1.398% | -21.57%
CC(C)N(C)[C@@H]1CCN(c2ncccn2)[C@H]1Cc1ccncc1 | 3.072% | 3.127% | -2.581%
O=C(NCCCNC(=O)c1cccc(O)c1)Nc1ccc(F)cc1F | -9.488% | 6.303% | 7.962%
COCCN(C(=O)c1cc(C)no1)c1ccc(C#N)cc1 | -13.43% | -0.6951% | 4.785%
CC(C)(C)C(=O)NCCC1CN(Cc2ccccc2F)CCO1 (stereo not given) | -7.869% | 3.413% | 4.263%
COCC1CCN(C(=O)c2cn(Cc3cccc(C(F)(F)F)c3)nn2)C1 (stereo not given) | 16.1% | 1.45% | 0.2545%
COc1cc(-c2noc(C(CC(C)C)N3CCCCC3=O)n2)ccn1 (stereo not given) | -20.77% | 4.906% | -4.4%
Cn1cnc2c1C(COCc1ccccc1)N(Cc1cccnc1)CC2 (stereo not given) | -28.1% | 4.367% | -13.55%
CCn1ccnc1CN1CCN(Cc2cc(C#N)ccc2F)CC1 | -8.04% | -1.21% | 13.57%
O=C([C@H]1C[C@H]2OCC[C@H]2N(C(=O)c2ccccn2)C1)N1CCCCO1 | -25.93% | 11.88% | 5.537%
Cc1csc(CCCNC(=O)NC2CC(=O)N(C(C)(C)C)C2)n1 (stereo not given) | -26.85% | 2.012% | 1.085%
CCN(C)CCNC(=O)Cc1nc(-c2ccco2)oc1C | -2.215% | 0.7349% | 2.829%
Cc1cnn(CC2CN(Cc3ccccn3)CCO2)c1 (stereo not given) | 0.874% | 2.415% | 1.399%
Cc1ccc(OCC(=O)NC2(C#N)CCSCC2)cc1C | -4.596% | 6.242% | 3.289%
COc1ncccc1C(=O)N1CCC2(CC1)CC(OC)CO2 (stereo not given) | -20.8% | 4.696% | 1.238%
N#CCC(=O)NCc1nnc2n1CCN(Cc1ccco1)C2 | -22.21% | 3.915% | -
CC(=O)N1CCOCC2(CN(Cc3ccc(C)o3)CCO2)C1 (stereo not given) | -15.89% | -8.02% | 12.69%
O=C(CCc1nnc(-c2ccccc2)o1)N1CCN(CC2CC2)CC1 | -6.407% | 0.464% | 7.727%
O=C(Nc1cnn(CC(F)F)c1)c1cccc(-n2cnnn2)c1 | -12.27% | -2.432% | -16.93%
CC(C)CNC(=O)CNC(=O)NCC(O)c1ccc2ccccc2c1 (stereo not given) | -16.51% | 3.291% | 1.195%
CC(=O)N1CCC2(CC1)CN(C(C)C)c1ccc(F)cc12 | -4.788% | 1.043% | 4.827%
CN(C)c1nc(NCCc2ccnn2C)ncc1F | 10.79% | 2.784% | 6.818%
CC(NCc1cnc(C2CCC2)s1)c1ccc(-n2cccn2)cc1 (stereo not given) | -12.47% | -0.07065% | -1.629%
COCc1noc(-c2ccc(N3CCC[C@H]3CO)nc2)n1 | -1.799% | -2.111% | 0.7937%
Cc1cc(C)n(-c2nc(NCCCO)c3c4c(sc3n2)CCCC4)n1 | -147.4% | 2.124% | 4.43%
COCCc1nnc(NC(=O)CSCc2ccccc2)o1 | -11.83% | 2.012% | 2.043%
Cc1ccc(CN(CCN(C)C)Cc2ncc[nH]2)s1 | -2.309% | 1.813% | -1.863%
CN(CC(=O)N1CCCC1)C(=O)Cc1csc(-c2ncccn2)n1 | -14.72% | 0.8662% | 1.901%
CCc1ocnc1C(=O)N1CCN(c2ccc3ccccc3c2)CC1 | -12.77% | 8.07% | 4.904%
CC(C)N1CCOC(CC(=O)N2CCCN(c3ccc(F)cc3)CC2)C1 (stereo not given) | -32.09% | -1.304% | 7.901%
Cc1ncccc1NC(=O)[C@H]1C[C@@H]2CCN(Cc3nccs3)C[C@@H]2O1 | -31.99% | 2.247% | 5.913%
CC(=O)c1cnc(NCC2OCCc3ccccc32)nc1C (stereo not given) | -39.41% | 6.153% | 13.2%
c1ccc(Oc2nccc3occc23)c(CN2CCCCC2)c1 | -4.297% | 2.826% | -5.16%
COc1ccc(OC)c(C(=O)N(C)Cc2ncc(C)c(OC)c2C)c1 | -14.5% | 15.64% | 1.512%
COCc1nc(C(=O)N2CCN(Cc3cc(C)on3)CC2)cs1 | 1.902% | 1.767% | 3.44%
COc1ccc(Cl)cc1-n1c(COC(C)C)n[nH]c1=O | -35.31% | 6.388% | 4.701%
CCOCCCC(=O)NC1CCN(C(C)c2ccccc2)CC1 (stereo not given) | 0.841% | 5.936% | 5.159%
O=C(CNc1nc(C(F)(F)F)cs1)N1CCc2sccc2C1 | -11.47% | 0.2968% | 6.349%
CC(O)CN1CC(C)(C)CN(C(=O)CCc2ccccc2)CC1=O (stereo not given) | 1.907% | 7.15% | -0.2421%
CC(=O)N1Cc2ccccc2CC1C(=O)Nc1ccc(C)cn1 (stereo not given) | -34.15% | 3.901% | 4.146%
COc1cc2cc(C(=O)N[C@@H](C)C(=O)O)n(C)c2c(OC)c1OC | -18.28% | 3.907% | 10.36%
CN(C)Cc1nnc(C(=O)N(C)Cc2ccc(C(F)(F)F)cc2)o1 | -23.23% | 0.4474% | 13.37%
CCOc1nn(CC)cc1-c1nnc(SCc2cccnc2)n1C | -16.75% | 6.394% | -0.7856%
O=C(NC1CC1)[C@H]1C[C@@H]2CCN(Cc3ccc4c(c3)OCO4)C[C@@H]2O1 | -0.3361% | 2.741% | -2.101%

Once more, the final 4:

SMILES,Pks13 thioesterase,PfKRS1,CoaBC
COc1cc2cc(C(=O)N[C@@H](C)C(=O)O)n(C)c2c(OC)c1OC,-18.28%,3.907%,10.36%
CN(C)Cc1nnc(C(=O)N(C)Cc2ccc(C(F)(F)F)cc2)o1,-23.23%,0.4474%,13.37%
CCOc1nn(CC)cc1-c1nnc(SCc2cccnc2)n1C,-16.75%,6.394%,-0.7856%
O=C(NC1CC1)[C@H]1C[C@@H]2CCN(Cc3ccc4c(c3)OCO4)C[C@@H]2O1,-0.3361%,2.741%,-2.101%